According to publication doi:10.1101/2023.01.18.524620:
No constants are given. Whether binding was seen depends on the method and setting. For part of these data: Binding calls can cover weak binding; strength is not graded here. Where a sequence is shown, tags or fusion partners need not be part of it. For part of these data: In cells and extracts the contact can be indirect.

T1: N-coil-Globular N part of arabidopsis AGO1 (NcGN^AGO1), Gal4-BD fusion (Arabidopsis thaliana) (UniProt O04379)
T1 sequence: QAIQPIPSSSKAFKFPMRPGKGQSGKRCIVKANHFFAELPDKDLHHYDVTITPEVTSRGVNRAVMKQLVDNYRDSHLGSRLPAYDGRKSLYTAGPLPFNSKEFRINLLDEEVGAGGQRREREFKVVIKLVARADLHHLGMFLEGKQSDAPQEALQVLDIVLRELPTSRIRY

T2: βNc^AGO1 (N-coil plus connecting β-strands), Gal4-BD fusion (Arabidopsis thaliana) (UniProt O04379)
T2 sequence: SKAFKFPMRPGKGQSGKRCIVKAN

T3: cYFP-AGO1 (full-length AGO1 fused to the C-terminal half of YFP) (Arabidopsis thaliana) (UniProt O04379)
T3 sequence: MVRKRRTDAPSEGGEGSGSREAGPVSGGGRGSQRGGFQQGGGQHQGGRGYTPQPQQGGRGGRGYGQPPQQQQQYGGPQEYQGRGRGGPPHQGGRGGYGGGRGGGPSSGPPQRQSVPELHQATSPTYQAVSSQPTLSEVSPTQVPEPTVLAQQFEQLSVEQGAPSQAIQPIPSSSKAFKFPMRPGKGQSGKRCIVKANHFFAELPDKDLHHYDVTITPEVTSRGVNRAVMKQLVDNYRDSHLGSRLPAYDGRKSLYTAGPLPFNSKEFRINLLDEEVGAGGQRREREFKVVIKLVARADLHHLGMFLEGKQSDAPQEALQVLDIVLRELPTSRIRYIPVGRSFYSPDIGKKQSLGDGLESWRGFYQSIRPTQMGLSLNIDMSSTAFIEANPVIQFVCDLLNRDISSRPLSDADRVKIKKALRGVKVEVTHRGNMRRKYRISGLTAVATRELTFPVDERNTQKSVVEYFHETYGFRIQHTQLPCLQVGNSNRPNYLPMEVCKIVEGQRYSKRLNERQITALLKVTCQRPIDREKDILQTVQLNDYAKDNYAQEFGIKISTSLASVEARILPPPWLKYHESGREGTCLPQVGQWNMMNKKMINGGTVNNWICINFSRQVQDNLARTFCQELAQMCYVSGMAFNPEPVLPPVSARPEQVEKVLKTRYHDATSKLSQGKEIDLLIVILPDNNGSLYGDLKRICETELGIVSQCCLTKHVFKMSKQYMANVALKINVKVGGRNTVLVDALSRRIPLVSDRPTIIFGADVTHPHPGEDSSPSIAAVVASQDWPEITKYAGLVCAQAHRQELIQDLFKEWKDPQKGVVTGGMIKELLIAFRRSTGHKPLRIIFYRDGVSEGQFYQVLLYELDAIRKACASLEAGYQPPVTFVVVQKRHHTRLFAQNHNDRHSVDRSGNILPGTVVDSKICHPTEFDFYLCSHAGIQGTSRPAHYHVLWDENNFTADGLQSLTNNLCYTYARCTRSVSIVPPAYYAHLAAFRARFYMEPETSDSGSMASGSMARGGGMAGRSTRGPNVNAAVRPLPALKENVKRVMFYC


Tests used:
[1] = molecular target: T1, N-coil-Globular N part of arabidopsis AGO1 (NcGN^AGO1), Gal4-BD fusion (Arabidopsis thaliana); assay: two-hybrid
[2] = molecular target: T2, βNc^AGO1 (N-coil plus connecting β-strands), Gal4-BD fusion (Arabidopsis thaliana); assay: two-hybrid
[3] = molecular target: T3, cYFP-AGO1 (full-length AGO1 fused to the C-terminal half of YFP) (Arabidopsis thaliana); assay: split reporter
[4] = molecular target: cYFP-AGO10 (Arabidopsis thaliana); assay: split reporter

Molecule | binding [1] | other results
AUF3 fused to the Gal4 activation domain (Arabidopsis thaliana) | binds | –
NTMC2T5.1 fused to the Gal4 activation domain (Arabidopsis thaliana) | binds | –
PP2C fused to the Gal4 activation domain (Arabidopsis thaliana) | binds | –
TCTP fused to the Gal4 activation domain (Arabidopsis thaliana) | binds | binding [2]: no binding
UBI fused to the Gal4 activation domain (Arabidopsis thaliana) | binds | –
nYFP-AUF3^171-371 (Arabidopsis thaliana) (domain or fragment) | – | binding [3]: binds
nYFP-ATI1 (protein, UniProt O82775 1-256) MANNEEHPPRGNEWEVVSLTSSAYAAAPGPYNVESRDVRKYDAYYGAETSRDLYMSEHFVFPPSEHENLPIDESLFVAEQRKDGRDLMLEGQGLSDQFHYEAGNNQQSIYGESALGSSRHMESFGSESAVYEHGLVDAEGNLDLHSDGEGEKDVKKSTHNLPCEAWWKRRAISMYSRTREANAIWSLFFAAAVTGLVVLGQRWQQERWQVLQLKWQSSISSEKLGRVLEPLSRLKDVIVRSNPQASLVRSGSSSEV | – | binding [4]: binds weakly
nYFP-ATI2 (protein, UniProt Q8VY98 1-266) MADKDEAATRGNDWEVVSLTASAYAAAPGPKPVVDSKDDDHKEVTPCYEAETSHPLYMSRHFVFPPTGQLENTSDLTEASLTGSHCKEGSDLSLKGLDLSDDFGGLEFSEDKGKKEENIYTTAMSSLDDERAIGGSHVYEPVEEPTEPVSPSDVTLDLNPIKDDEVANSPPSEEAWWKRSVASLIAQAKETNTVWSICIAAAVMGIVILGQHWQQERWQILQQKWESSIGNEKAGRLMGPISRLKQAFVGGQRRDSFIRASAQNDR | – | binding [4]: binds weakly
